# Results: article PMC6410080 (Viruses, 2019)
# Counter-ions that a name gives are not always drawn.
# Legend:
# [1] = in vitro; details: human, % viability (SFV screen)
# [2] = in vitro; details: human
smiles,measurement,setting,value
"CCCCc1oc2ccccc2c1C(=O)c1cc(I)c(OCCN(CC)CC)c(I)c1 [Amiodarone, Amiodarone hydrochloride]",viability at 10 µM,[1],83.1%
same,viability at 10 µM,[2],76.1%
